The target of the test is T1, mouse B7S1-his (R&D system, cat#4206-B7-100) (mouse) (UniProt Q7TSP5).
T1 sequence (looked up): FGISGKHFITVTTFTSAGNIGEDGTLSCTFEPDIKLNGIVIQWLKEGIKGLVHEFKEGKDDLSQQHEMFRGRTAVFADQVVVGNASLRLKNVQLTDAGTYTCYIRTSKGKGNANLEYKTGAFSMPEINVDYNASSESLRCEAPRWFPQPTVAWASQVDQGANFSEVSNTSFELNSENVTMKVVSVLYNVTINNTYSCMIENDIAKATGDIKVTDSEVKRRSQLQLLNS
Description: ELISA, antigen coated on plate. For orientation: An ELISA detects its analyte on a solid surface through an enzyme-linked reagent.

No constants are given. Whether binding was seen depends on the method and setting. Some entries that bind do so weakly or less than the wild type. Tags and fused reporters may be left off the sequences shown.

B1: humanized anti-B7S1 antibody VH1-4/VL4-5 (antibody, V domains shown)
VH: QVQLVQSGAEVKKPGASVKVSCKASGYTFTSYWMHWVRQAPGQGLEWIAAIYPGNSDTDYNQKFKGKAKITAVTSTSTVYMELSSLRSEDTAVYYCTTTVAHYFDYWGQGTMVTVSS
VL: EIVMTQSPATLSLSPGERATLTCKASQDVSFAVAWYQQKPGQAPKLLISSASYRYTGVPDRFSGSGSGTDFTLTISSLEPEDFAVYYCQQHYNTPLTFGGGTKVEIK
As to B1, the binding result is “binds”.

B2: humanized anti-B7S1 antibody VH1-5/VL4-4 (antibody, V domains shown)
VH: QVQLVQSGAEVKKPGASVKVSCKASGYTFTSYWMHWVKQAPGQGLEWIAAIYPGNSDTDYNQKFKGKAKITAVTSTSTAYMELSSLRSEDTAVYYCTTTVAHYFDYWGQGTMVTVSS
VL: EIVLTQSPATLSLSPGERATLSCKASQDVSFAVAWYQQKPGQAPRLLISSASYRYTGVPDRFSGSGSGTDFTLTISSLEPEDFAVYYCQQHYNTPLTFGGGTKVEIK
For B2, the binding entry is “binds”.

B3: humanized anti-B7S1 antibody VH1-5/VL4-5 (antibody, V domains shown)
VH: QVQLVQSGAEVKKPGASVKVSCKASGYTFTSYWMHWVKQAPGQGLEWIAAIYPGNSDTDYNQKFKGKAKITAVTSTSTAYMELSSLRSEDTAVYYCTTTVAHYFDYWGQGTMVTVSS
VL: EIVMTQSPATLSLSPGERATLTCKASQDVSFAVAWYQQKPGQAPKLLISSASYRYTGVPDRFSGSGSGTDFTLTISSLEPEDFAVYYCQQHYNTPLTFGGGTKVEIK
In the case of B3, the binding entry is “binds”.

These data come from patent publication US20220089735A1.
